# Results taken from paper PMC7619497.
# By UniProt entry, the sequences of proteins in these tests, tags left out.
# UniProt Q7Z6Z7: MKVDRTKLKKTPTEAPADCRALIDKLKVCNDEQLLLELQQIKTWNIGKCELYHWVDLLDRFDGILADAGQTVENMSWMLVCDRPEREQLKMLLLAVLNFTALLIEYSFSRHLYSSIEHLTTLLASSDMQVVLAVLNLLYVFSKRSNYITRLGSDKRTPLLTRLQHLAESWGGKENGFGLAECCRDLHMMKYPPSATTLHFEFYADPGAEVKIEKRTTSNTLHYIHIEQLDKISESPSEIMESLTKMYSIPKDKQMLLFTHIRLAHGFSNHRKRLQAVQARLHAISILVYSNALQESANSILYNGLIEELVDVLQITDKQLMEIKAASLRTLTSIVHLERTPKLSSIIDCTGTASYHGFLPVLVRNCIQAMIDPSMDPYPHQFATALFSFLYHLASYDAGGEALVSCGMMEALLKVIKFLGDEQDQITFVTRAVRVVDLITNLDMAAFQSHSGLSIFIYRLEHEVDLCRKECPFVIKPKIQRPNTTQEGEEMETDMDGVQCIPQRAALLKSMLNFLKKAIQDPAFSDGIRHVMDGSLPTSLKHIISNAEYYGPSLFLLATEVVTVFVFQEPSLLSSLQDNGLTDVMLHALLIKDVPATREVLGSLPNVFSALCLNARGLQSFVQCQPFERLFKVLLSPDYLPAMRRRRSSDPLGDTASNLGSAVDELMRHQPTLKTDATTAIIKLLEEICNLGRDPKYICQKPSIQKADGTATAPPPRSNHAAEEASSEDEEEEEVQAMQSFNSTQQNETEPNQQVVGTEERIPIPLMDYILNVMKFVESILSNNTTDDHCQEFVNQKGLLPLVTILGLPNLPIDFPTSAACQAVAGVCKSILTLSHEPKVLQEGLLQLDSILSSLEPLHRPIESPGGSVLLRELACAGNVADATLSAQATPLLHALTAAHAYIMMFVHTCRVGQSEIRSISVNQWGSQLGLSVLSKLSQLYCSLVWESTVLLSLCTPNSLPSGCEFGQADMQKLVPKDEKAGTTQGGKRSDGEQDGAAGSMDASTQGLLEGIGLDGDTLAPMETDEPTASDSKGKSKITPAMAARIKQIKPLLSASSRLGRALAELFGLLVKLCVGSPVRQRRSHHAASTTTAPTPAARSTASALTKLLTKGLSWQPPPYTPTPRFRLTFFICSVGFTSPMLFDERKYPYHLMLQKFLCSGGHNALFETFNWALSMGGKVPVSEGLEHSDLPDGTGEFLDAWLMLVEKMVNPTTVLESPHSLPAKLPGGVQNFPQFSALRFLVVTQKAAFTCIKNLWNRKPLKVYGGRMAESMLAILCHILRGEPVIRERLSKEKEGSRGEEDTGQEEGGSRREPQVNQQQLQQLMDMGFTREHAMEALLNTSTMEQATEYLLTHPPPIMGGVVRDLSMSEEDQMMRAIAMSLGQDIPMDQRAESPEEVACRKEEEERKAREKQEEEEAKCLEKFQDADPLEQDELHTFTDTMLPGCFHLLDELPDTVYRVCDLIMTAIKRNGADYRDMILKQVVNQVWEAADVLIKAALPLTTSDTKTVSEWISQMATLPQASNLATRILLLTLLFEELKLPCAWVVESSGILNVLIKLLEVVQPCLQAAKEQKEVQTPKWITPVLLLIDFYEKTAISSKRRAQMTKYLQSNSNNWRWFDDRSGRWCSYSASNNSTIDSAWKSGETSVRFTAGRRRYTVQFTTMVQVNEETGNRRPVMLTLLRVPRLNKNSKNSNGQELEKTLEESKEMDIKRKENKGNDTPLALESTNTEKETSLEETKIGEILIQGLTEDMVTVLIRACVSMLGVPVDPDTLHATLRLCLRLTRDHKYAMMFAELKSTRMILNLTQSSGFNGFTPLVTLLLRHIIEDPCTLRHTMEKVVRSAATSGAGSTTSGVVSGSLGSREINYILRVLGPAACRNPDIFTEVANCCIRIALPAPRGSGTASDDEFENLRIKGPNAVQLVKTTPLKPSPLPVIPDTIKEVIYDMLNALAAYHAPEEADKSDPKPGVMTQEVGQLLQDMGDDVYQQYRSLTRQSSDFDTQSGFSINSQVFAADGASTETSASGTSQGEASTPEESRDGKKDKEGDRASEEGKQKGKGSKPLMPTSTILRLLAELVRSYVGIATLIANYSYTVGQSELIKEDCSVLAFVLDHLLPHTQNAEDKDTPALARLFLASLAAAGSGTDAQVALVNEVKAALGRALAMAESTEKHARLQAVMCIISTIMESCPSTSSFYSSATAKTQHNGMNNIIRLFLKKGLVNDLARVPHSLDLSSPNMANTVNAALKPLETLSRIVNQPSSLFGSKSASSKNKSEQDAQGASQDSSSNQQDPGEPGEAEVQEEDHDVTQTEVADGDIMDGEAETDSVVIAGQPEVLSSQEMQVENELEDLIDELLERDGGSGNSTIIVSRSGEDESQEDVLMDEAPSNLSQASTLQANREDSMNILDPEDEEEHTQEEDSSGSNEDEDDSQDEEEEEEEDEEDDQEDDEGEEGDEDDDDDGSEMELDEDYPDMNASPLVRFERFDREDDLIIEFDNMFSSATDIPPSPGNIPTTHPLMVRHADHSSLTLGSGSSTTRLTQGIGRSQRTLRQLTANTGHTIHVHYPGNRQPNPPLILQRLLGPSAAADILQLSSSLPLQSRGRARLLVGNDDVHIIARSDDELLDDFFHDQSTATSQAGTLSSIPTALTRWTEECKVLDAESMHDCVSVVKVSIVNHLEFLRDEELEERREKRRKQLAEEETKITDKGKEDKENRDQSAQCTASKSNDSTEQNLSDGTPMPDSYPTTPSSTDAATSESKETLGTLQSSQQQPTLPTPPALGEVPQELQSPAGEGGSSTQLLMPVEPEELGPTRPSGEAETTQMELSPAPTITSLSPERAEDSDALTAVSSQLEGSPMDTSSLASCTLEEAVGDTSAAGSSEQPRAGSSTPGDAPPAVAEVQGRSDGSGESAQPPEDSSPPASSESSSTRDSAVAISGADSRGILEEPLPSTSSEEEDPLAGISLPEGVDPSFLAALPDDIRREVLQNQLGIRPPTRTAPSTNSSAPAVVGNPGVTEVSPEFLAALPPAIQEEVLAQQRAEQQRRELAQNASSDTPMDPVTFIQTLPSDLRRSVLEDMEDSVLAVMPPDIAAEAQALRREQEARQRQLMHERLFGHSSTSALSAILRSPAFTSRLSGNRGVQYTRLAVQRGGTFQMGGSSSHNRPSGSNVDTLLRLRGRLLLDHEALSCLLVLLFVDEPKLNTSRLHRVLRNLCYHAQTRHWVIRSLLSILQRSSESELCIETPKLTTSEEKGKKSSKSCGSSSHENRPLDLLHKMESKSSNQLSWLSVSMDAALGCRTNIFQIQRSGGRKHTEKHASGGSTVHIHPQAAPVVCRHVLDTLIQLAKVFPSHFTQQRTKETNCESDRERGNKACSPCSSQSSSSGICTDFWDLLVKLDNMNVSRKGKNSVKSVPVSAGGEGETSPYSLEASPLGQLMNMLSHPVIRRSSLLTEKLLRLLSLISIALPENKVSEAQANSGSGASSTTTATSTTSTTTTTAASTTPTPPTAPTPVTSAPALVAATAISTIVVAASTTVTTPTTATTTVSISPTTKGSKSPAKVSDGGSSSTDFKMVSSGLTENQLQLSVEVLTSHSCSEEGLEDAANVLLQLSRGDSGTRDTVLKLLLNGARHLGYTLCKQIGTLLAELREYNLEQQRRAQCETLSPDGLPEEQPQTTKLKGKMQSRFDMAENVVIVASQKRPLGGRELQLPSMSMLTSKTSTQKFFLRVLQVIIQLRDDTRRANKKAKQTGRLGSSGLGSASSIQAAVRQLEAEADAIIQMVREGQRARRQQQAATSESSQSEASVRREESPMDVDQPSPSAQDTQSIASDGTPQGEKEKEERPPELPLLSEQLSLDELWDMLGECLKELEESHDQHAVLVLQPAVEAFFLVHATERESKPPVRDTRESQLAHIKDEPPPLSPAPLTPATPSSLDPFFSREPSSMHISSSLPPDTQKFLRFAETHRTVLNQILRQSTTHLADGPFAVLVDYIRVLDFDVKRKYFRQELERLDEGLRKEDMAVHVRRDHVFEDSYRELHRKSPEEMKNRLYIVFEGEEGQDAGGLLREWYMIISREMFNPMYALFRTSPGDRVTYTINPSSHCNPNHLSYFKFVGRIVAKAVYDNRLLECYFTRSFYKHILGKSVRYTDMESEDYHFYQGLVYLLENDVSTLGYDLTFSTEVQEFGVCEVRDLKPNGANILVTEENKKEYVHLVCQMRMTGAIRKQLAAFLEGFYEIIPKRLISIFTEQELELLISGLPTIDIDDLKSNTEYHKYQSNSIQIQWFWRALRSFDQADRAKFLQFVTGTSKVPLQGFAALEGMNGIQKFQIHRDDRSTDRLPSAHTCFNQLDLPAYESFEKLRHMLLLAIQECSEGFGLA
# UniProt P15884: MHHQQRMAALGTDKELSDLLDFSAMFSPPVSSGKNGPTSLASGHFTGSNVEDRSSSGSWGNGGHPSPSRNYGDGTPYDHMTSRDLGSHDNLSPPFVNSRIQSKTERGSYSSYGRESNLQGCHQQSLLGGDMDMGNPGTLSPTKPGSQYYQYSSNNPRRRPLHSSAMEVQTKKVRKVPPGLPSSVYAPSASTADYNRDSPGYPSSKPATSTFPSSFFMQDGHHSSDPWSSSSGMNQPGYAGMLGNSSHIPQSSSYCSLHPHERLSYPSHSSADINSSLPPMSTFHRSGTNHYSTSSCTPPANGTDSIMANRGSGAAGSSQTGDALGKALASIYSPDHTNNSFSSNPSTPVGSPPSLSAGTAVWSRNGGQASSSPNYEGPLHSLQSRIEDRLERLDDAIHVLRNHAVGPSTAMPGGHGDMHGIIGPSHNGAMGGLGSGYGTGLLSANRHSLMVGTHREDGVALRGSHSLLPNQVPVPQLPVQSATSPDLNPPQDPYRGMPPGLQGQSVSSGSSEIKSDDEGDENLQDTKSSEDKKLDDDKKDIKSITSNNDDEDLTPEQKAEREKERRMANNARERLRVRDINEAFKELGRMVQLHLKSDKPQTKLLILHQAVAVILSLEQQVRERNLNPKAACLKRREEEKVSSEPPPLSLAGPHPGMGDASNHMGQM
# UniProt Q13547: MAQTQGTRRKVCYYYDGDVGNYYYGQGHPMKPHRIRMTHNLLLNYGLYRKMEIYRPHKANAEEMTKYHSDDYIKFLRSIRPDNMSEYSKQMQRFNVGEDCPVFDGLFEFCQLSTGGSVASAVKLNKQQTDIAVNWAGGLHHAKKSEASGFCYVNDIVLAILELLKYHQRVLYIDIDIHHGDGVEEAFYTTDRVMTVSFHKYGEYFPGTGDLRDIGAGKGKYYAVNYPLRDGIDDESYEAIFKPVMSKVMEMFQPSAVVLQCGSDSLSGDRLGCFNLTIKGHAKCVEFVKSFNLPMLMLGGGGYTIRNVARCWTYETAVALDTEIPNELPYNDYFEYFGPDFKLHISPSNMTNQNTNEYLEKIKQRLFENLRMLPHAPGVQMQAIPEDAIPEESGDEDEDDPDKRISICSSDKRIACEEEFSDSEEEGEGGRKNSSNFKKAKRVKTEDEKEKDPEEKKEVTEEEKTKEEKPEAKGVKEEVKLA
# UniProt Q99081: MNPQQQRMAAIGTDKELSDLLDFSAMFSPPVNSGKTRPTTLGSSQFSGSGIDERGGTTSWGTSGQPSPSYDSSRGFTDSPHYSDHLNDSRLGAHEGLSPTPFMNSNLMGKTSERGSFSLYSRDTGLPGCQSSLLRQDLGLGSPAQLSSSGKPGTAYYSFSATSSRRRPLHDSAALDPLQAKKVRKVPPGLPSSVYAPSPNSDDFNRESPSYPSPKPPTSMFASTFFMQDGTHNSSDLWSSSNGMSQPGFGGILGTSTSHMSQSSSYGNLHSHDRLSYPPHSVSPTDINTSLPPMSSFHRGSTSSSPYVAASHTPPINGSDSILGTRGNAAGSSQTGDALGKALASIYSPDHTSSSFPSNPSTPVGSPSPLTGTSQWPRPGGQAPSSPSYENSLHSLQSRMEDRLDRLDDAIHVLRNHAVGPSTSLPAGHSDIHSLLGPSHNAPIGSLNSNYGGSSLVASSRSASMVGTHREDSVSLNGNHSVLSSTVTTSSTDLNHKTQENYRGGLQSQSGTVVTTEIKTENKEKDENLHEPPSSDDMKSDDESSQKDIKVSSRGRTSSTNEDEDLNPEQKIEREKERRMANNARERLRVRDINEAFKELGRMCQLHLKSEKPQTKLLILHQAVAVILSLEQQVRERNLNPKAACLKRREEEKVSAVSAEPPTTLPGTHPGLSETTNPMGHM
# UniProt P50750: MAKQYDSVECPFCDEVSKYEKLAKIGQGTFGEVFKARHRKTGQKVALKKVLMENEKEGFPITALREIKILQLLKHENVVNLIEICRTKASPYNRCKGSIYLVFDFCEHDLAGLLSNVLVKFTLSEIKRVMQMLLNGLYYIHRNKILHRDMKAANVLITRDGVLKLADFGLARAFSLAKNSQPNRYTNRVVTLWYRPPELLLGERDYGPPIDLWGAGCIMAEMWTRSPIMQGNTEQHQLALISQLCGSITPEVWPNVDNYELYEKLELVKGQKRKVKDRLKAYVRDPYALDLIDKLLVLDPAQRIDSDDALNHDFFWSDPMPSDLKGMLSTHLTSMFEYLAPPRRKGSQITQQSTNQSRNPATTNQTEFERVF
# Results are given in words; binding and its absence hold for the method and conditions named. In cells and extracts the contact can be indirect. A yes stands for co-enrichment or nearness to the bait. Other partners may have been found. Sequences can lack the tags named with a protein.
# T1: Achaete-scute homolog 1 (ASCL1), untagged wild type (human) (UniProt P50553)
# T1 sequence: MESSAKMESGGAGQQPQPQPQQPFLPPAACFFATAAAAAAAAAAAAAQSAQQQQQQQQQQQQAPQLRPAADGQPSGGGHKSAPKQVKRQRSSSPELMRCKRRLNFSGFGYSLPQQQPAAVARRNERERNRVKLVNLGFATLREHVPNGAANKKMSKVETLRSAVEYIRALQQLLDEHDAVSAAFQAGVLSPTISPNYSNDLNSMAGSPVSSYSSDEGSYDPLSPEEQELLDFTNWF
# B1: HAND1 (protein, UniProt O96004 1-215)
# chain: MNLVGSYAHHHHHHHPHPAHPMLHEPFLFGPASRCHQERPYFQSWLLSPADAAPDFPAGGPPPAAAAAATAYGPDARPGQSPGRLEALGGRLGRRKGSGPKKERRRTESINSAFAELRECIPNVPADTKLSKIKTLRLATSYIAYLMDVLAKDAQSGDPEAFKAELKKADGGRESKRKRELQQHEGFPPALGPVEKRIKGRTGWPQQVWALELNQ
# B2: ARID3B (protein, UniProt Q8IVW6 1-561)
# chain: MEPLQQQQQQQQQQQKQPHLAPLQMDAREKQGQQMREAQFLYAQKLVTQPTLLSATAGRPSGSTPLGPLARVPPTAAVAQVFERGNMNSEPEEEDGGLEDEDGDDEVAEVAEKETQAASKYFHVQKVARQDPRVAPMSNLLPAPGLPPHGQQAKEDHTKDASKASPSVSTAGQPNWNLDEQLKQNGGLAWSDDADGGRGREISRDFAKLYELDGDPERKEFLDDLFVFMQKRGTPINRIPIMAKQILDLYMLYKLVTEKGGLVEIINKKIWREITKGLNLPTSITSAAFTLRTQYMKYLYAYECEKKALSSPAELQAAIDGNRREGRRPSYSSSLFGYSPAAATAAAAAGAPALLSPPKIRFPILGLGSSSGTNTSSPRISPATTLRKGDGAPVTTVPVPNRLAVPVTLASQQAGTRTAALEQLRERLESGEPAEKKASRLSEEEQRLVQQAFQRNFFSMARQLPMKIRINGRAEDRAEASAAALNLTTSSIGSINMSVDIDGTTYAGVLFAQKPVVHLITGSAPQSLGSSASSSSSSHCSPSPTSSRGTPSAEPSTSWSL
# B3: TFAP4 (protein, UniProt Q01664 1-338)
# chain: MEYFMVPTQKVPSLQHFRKTEKEVIGGLCSLANIPLTPETQRDQERRIRREIANSNERRRMQSINAGFQSLKTLIPHTDGEKLSKAAILQQTAEYIFSLEQEKTRLLQQNTQLKRFIQELSGSSPKRRRAEDKDEGIGSPDIWEDEKAEDLRREMIELRQQLDKERSVRMMLEEQVRSLEAHMYPEKLKVIAQQVQLQQQQEQVRLLHQEKLEREQQQLRTQLLPPPAPTHHPTVIVPAPPPPPSHHINVVTMGPSSVINSVSTSRQNLDTIVQAIQHIEGTQEKQELEEEQRRAVIVKPVRSCPEAPTSDTASDSEASDSDAMDQSREEPSGDGELP
# B4: SATB1 (protein, UniProt Q01826 1-763)
# chain: MDHLNEATQGKEHSEMSNNVSDPKGPPAKIARLEQNGSPLGRGRLGSTGAKMQGVPLKHSGHLMKTNLRKGTMLPVFCVVEHYENAIEYDCKEEHAEFVLVRKDMLFNQLIEMALLSLGYSHSSAAQAKGLIQVGKWNPVPLSYVTDAPDATVADMLQDVYHVVTLKIQLHSCPKLEDLPPEQWSHTTVRNALKDLLKDMNQSSLAKECPLSQSMISSIVNSTYYANVSAAKCQEFGRWYKHFKKTKDMMVEMDSLSELSQQGANHVNFGQQPVPGNTAEQPPSPAQLSHGSQPSVRTPLPNLHPGLVSTPISPQLVNQQLVMAQLLNQQYAVNRLLAQQSLNQQYLNHPPPVSRSMNKPLEQQVSTNTEVSSEIYQWVRDELKRAGISQAVFARVAFNRTQGLLSEILRKEEDPKTASQSLLVNLRAMQNFLQLPEAERDRIYQDERERSLNAASAMGPAPLISTPPSRPPQVKTATIATERNGKPENNTMNINASIYDEIQQEMKRAKVSQALFAKVAATKSQGWLCELLRWKEDPSPENRTLWENLSMIRRFLSLPQPERDAIYEQESNAVHHHGDRPPHIIHVPAEQIQQQQQQQQQQQQQQQAPPPPQPQQQPQTGPRLPPRQPTVASPAESDEENRQKTRPRTKISVEALGILQSFIQDVGLYPDEEAIQTLSAQLDLPKYTIIKFFQNQRYYLKHHGKLKDNSGLEVDVAEYKEEELLKDLEESVQDKNTNTLFSVKLEEELSVEGNTDINTDLKD
# B5: Cyclin F (protein, UniProt P41002 1-786)
# chain: MGSGGVVHCRCAKCFCYPTKRRIRRRPRNLTILSLPEDVLFHILKWLSVEDILAVRAVHSQLKDLVDNHASVWACASFQELWPSPGNLKLFERAAEKGNFEAAVKLGIAYLYNEGLSVSDEARAEVNGLKASRFFSLAERLNVGAAPFIWLFIRPPWSVSGSCCKAVVHESLRAECQLQRTHKASILHCLGRVLSLFEDEEKQQQAHDLFEEAAHQGCLTSSYLLWESDRRTDVSDPGRCLHSFRKLRDYAAKGCWEAQLSLAKACANANQLGLEVRASSEIVCQLFQASQAVSKQQVFSVQKGLNDTMRYILIDWLVEVATMKDFTSLCLHLTVECVDRYLRRRLVPRYRLQLLGIACMVICTRFISKEILTIREAVWLTDNTYKYEDLVRMMGEIVSALEGKIRVPTVVDYKEVLLTLVPVELRTQHLCSFLCELSLLHTSLSAYAPARLAAAALLLARLTHGQTQPWTTQLWDLTGFSYEDLIPCVLSLHKKCFHDDAPKDYRQVSLTAVKQRFEDKRYGEISQEEVLSYSQLCAALGVTQDSPDPPTFLSTGEIHAFLSSPSGRRTKRKRENSLQEDRGSFVTTPTAELSSQEETLLGSFLDWSLDCCSGYEGDQESEGEKEGDVTAPSGILDVTVVYLNPEQHCCQESSDEEACPEDKGPQDPQALALDTQIPATPGPKPLVRTSREPGKDVTTSGYSSVSTASPTSSVDGGLGALPQPTSVLSLDSDSHTQPCHHQARKSCLQCRPPSPPESSVPQQQVKRINLCIHSEEEDMNLGLVRL
# Biological target: T1, Achaete-scute homolog 1 (ASCL1), untagged wild type (human)
# Experiment: affinity purification with mass spectrometry; qPLEX-RIME: IMR^ASCL1 and BE^ASCL1 cells, 1 ug/mL doxycycline 24 h; double cross-linking (2 mM DSG 20 min, 1% formaldehyde 10 min); sonicated chromatin; ASCL1 immunoprecipitation on antibody-conjugated beads overnight at 4 C against an IgG control; 10 RIPA washes; TMT-labelled peptides, MS3
row,Molecule,binding
1,PLK1 (from UniProt P53350 1-603),binds
2,HUWE1 (from UniProt Q7Z6Z7 1-4374),binds
3,TCF4 (from UniProt P15884 1-667),binds
4,BCL11B (from UniProt Q9C0K0 1-894),binds
5,Cyclin A2 (from UniProt P20248 1-432),binds
6,HDAC1 (from UniProt Q13547 1-482),binds
7,GATA4 (from UniProt P43694 1-442),binds
8,TCF12 (from UniProt Q99081 1-682),binds
9,CDK9 (from UniProt P50750 1-372),binds

# Biological target: T1, Achaete-scute homolog 1 (ASCL1), untagged wild type (human)
# Experiment: as above
# Remark: another data set of the same source
row,Molecule,binding
1,B1,binds
2,B2,binds
3,B3,binds
4,B4,binds
5,B5,binds
